Laboratory results as given in patent publication US20240335373A1, “Methods, Systems and Devices for Post-Fabrication Drug Loading” (THE UNIVERSITY OF NORTH CAROLINA AT CHAPEL HILL, priority 2020, published 2024).
For at least one compound, name, drawing or mass did not settle the structure.

Assay: Drug loading of post-loaded SIL 30 diffusion blocks, solvent extraction and HPLC
Format: physicochemical
Conditions: successive loading in methanol; Average ± Standard Deviation of 4 rounds
Description: Loading. […] . Solutions of 5 mg/mL of drug in acetone were prepared and validated via HPLC. […] Blocks were then divided into an extraction set and a release set.
Extraction. Drug-loaded blocks were extracted using methods previously described in Section 2.6 using acetone as the extraction solvent. Aliquots were collected and analyzed with HPLC. Weight percent loading was determined as the total drug extracted relative to the mass of the dried blocks.
Block types 6.0 and 7.6 mm (n=8 of each type) were fabricated in SIL 30. A solution containing 8.562 mg/mL of 4′-ethynyl-2-fluoro-2′-deoxyadenosine (EFdA) in acetone was prepared and validated via HPLC. […] EFdA was extracted from blocks in acetone as previously described and quantified with HPLC. […] EFdA was quantified with HPLC, eluting at 5.31 min at 265 nm.
A test part described as a diffusion block with dimensions in X, Y, and Z of 10 mm, 20 mm, and 4 mm, respectively, was primarily used. […] The part was removed and measured for swollen metrics. […] The part was then dried in an oven to remove the post-loading solvent, after which the part was measured for dried metrics. […]
. For these samples, metrics were taken and aliquots were analyzed via HPLC on a C18 column with an optimized method. Extraction aliquots and post-loading solution aliquots were diluted in acetonitrile (ACN) at 1:100 while release samples were analyzed as is. […]

C[C@]12CC[C@@H]3c4ccc(O)cc4CC[C@H]3[C@@H]1CC[C@@H]2O [β-Estradiol, β-estradiol]
Amount extracted: 44.3 ± 1.1 mg
